Measured values published in PMC7862700.
This is a selection; strong and weak results do not stand in their true shares. At the low end of the ranking the order means little.

The chains behind the UniProt entries cited, without tags or fusion partners. Where a name states a change or a piece, a line headed by the entry shows the natural chain unless it says otherwise.
UniProt Q9Y603: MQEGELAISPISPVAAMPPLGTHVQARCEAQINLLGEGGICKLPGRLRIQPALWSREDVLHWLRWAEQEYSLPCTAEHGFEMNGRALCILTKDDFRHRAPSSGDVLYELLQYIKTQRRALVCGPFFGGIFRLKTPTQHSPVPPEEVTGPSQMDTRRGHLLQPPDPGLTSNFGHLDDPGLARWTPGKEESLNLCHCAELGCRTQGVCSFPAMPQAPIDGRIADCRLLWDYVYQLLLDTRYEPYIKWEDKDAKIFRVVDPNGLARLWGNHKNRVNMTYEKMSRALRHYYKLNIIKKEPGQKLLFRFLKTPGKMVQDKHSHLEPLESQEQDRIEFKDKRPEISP
UniProt P41212: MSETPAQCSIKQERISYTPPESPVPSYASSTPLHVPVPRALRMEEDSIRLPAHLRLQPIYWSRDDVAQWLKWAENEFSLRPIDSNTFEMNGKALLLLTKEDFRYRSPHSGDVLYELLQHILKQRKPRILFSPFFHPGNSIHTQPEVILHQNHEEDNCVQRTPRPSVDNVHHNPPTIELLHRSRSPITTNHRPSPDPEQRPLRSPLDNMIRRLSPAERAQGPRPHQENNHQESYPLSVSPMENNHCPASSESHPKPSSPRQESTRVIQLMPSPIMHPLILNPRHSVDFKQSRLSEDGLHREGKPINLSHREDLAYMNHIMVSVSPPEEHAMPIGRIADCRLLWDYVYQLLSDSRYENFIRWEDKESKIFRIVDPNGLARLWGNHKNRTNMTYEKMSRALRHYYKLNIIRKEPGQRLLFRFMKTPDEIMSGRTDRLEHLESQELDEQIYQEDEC

Columns and labels:
ETV7 = ETV7 (UniProt Q9Y603); test: DAPPL (digital affinity profiling via proximity ligation, sequencing); conditions: 10 mM Tris-HCl pH 7.5, 50 mM NaCl, 1 mM DTT, 4% glycerol, room temperature, 30 min; GST-TFs on glutathione beads, 16-mer random dsDNA library, 0.1% …; high values mean tight binding; double strand, one strand shown; scale: fold enrichment (6-mer frequency, TF over GST control)
ETV6 = ETV6 (UniProt P41212); test: as above; conditions: 10 mM Tris-HCl pH 7.5, 50 mM NaCl, 1 mM DTT, 4% glycerol, room temperature, 30 min; GST-TFs on glutathione beads, 16-mer random dsDNA library, 0.1% …; high values mean tight binding; double strand, one strand shown; scale: fold enrichment (6-mer frequency, TF over GST control)

Sequence	binding signal (ETV7)	binding signal (ETV6)
TGATTG	1.05	1.04
GGGTTC	0.982	0.999
TAGTAG	0.994	0.995
CTCTCT	1.56	1.59
TTTTCG	1.2	1.09
GACTTG	0.86	0.853
TCATAG	0.966	0.817
ATAGGT	1.17	0.954
AAGGGA	0.889	0.961
TGGGTA	1.01	0.921
GTGTCT	0.926	0.976
CGGATT	0.876	0.917
ATCCTA	1.37	1.34
AACCCC	1.11	1.18
GGATGG	1.06	0.943
CCCACC	1.08	1.12

Laid out differently: results already given.
Sequence | binding signal (ETV7) | binding signal (ETV6)
TAGTAG | 0.994 | 0.995
CTCTCT | 1.56 | 1.59
ATAGGT | 1.17 | 0.954
GTGTCT | 0.926 | 0.976
CGGATT | 0.876 | 0.917
CCCACC | 1.08 | 1.12

(further entries)

Sequence	binding signal (ETV7)	binding signal (ETV6)
CATAAT	1.02	1.07
ACGCTA	1.17	1.08
ACATGA	0.884	0.948
TAACTG	1.28	1.26
TCTATC	1.27	1.32
TTGAAG	0.991	0.999
ACGAGC	0.943	0.925
GATTCG	1.01	0.97
GTTGCT	1.38	1.29
ACTCGG	1.06	0.976
AGGTGT	0.869	0.786
GGCGTT	0.929	0.916
TGCGAC	1.29	1.28
TGTTAG	0.928	0.943
ATGAGG	0.927	0.954
GTGTAA	0.947	0.909
